# From article doi:10.1101/2022.01.03.474851
# Chains of the proteins cited; added tags and fusions are not shown.
# UniProt P48112: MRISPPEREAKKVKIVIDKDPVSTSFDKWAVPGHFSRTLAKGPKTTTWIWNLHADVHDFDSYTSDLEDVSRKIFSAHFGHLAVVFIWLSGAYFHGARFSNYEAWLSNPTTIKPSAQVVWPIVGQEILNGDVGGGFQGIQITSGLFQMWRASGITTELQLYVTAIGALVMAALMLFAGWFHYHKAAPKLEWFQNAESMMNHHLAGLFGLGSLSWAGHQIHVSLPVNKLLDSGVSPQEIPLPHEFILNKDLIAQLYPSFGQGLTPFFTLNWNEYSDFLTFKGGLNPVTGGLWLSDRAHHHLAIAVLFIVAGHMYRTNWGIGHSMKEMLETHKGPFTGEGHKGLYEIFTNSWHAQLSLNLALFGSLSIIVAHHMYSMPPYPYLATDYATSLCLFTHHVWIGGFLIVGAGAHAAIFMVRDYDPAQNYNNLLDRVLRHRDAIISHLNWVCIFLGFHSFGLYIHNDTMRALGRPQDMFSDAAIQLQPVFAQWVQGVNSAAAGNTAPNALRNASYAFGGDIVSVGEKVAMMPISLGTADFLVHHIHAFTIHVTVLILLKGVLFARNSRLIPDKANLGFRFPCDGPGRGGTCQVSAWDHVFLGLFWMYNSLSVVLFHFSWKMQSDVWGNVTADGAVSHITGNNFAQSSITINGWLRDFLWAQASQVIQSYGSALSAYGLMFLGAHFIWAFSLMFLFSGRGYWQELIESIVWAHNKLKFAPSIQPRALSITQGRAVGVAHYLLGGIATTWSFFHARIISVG
# These are yes or no findings as the source states them, for the method shown. Some entries that bind do so weakly or less than the wild type.
# Molecular target: PsaA (photosystem I subunit, gene product of psaA1) (Cyanophora paradoxa (endogenous, strain NIES-547)) (UniProt P48112)
# Test: cryo-EM structure
substance,measurement,value
"PsaA (photosystem I subunit, gene product of psaA1) (from UniProt P48112 1-752)",binding,binds
